Measured values published in PMC8689565.
Results are given in words; binding and its absence hold for the method and conditions named. Binding seen in cells or lysates may run through a third protein. Some entries that bind do so weakly or less than the wild type.

Amino acid sequences for entries named in this document (tags omitted).
UniProt Q86WV6: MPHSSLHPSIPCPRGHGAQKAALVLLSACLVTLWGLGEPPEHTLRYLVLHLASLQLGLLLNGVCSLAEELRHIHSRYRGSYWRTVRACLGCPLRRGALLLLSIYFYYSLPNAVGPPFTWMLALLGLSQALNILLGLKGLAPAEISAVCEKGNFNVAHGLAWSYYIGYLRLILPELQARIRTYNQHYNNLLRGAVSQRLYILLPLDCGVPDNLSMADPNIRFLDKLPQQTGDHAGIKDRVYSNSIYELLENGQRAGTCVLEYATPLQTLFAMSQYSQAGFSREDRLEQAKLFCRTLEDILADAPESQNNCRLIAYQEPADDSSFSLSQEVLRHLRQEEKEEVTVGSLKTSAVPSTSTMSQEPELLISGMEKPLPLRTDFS

Assays:
[1] = biological target: epidermal growth factor receptor (EGFR) (human (endogenous in HT1080 and HeLa)) (UniProt P00533); experiment: co-IP; endogenous proteins; HT1080 cells without cGAMP stimulation; IP and Western blot as for the stimulated cells
[2] = biological target: epidermal growth factor receptor (EGFR) (human (endogenous in HT1080 and HeLa)) (UniProt P00533); experiment: co-IP; endogenous proteins; HT1080 cells treated with cGAMP for 1 h, with or without 1 h R406 pretreatment; IP with antibody to EGFR, Syk or STING, Western blot; lysis in 20 mM HEPES pH 7.5, 150 mM NaCl, 1% Triton X-100, 0.2% NP-40
[3] = biological target: STING (human (endogenous in HT1080)) (UniProt Q86WV6); experiment: as above

binding [2] | binding [3] | Substance | binding [1]
binds |  | STING (from UniProt Q86WV6 1-379) | no binding (condition: cells without cGAMP stimulation)
 | binds | epidermal growth factor receptor (EGFR) (from UniProt P00533 25-1210) | 
